Results as given in the supplement of paper PMC10849652.
Some of the results follow. Residues, ends and D or L forms follow the SMILES beside them. *: point of attachment. Cbz = O=C(OCc1ccccc1)*

Amino acid sequences for entries named in this document (tags omitted). A change or cut given only in a name is not applied to a line headed by its entry.
UniProt P13804: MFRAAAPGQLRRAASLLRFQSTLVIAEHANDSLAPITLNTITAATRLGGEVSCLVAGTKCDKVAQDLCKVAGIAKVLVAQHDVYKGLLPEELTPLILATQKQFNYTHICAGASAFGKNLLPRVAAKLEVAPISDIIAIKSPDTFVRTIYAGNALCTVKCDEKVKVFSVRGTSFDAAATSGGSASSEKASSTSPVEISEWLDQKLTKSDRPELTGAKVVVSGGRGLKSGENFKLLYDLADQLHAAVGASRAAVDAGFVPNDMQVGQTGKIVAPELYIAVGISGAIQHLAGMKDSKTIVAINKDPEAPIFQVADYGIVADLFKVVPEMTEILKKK
UniProt Q9Y282: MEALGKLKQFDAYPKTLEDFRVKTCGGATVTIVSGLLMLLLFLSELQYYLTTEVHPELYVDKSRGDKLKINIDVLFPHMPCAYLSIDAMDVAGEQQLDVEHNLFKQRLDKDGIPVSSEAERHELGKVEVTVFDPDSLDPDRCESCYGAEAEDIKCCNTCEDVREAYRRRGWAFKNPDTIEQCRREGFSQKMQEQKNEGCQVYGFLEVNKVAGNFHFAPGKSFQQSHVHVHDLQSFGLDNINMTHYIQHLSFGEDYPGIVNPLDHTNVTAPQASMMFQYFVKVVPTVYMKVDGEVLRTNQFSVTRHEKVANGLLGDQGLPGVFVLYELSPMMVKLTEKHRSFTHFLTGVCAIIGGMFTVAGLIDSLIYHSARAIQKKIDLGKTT
UniProt Q9Y624, whole entry, looked up, stated change not applied: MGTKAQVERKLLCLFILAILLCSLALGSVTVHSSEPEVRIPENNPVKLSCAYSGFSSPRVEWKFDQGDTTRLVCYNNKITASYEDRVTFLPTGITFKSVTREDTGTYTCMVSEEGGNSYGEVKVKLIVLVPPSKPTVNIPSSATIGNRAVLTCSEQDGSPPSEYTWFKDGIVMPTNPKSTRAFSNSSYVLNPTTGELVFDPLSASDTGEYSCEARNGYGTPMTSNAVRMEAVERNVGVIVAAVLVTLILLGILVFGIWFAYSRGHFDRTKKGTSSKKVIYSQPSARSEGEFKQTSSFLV
UniProt Q93063: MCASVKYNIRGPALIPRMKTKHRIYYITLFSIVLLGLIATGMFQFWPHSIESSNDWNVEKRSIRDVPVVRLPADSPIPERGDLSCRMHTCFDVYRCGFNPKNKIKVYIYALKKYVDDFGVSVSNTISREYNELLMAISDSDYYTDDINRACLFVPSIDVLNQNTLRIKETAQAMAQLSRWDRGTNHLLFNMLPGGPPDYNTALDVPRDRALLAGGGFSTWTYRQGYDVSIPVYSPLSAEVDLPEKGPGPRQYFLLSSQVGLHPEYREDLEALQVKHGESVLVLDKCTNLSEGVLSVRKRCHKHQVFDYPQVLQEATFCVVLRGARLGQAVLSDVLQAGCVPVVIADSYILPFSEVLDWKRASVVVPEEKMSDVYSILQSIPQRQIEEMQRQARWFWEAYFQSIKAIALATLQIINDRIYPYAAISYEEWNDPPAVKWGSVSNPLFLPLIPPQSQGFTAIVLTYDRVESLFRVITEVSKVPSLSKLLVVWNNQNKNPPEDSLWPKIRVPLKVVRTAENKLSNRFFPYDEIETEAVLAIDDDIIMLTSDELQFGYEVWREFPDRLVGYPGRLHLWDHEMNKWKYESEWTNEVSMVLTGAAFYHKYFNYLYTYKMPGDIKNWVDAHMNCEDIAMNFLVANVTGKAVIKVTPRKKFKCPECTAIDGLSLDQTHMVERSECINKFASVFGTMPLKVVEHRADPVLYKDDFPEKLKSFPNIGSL
UniProt P28715: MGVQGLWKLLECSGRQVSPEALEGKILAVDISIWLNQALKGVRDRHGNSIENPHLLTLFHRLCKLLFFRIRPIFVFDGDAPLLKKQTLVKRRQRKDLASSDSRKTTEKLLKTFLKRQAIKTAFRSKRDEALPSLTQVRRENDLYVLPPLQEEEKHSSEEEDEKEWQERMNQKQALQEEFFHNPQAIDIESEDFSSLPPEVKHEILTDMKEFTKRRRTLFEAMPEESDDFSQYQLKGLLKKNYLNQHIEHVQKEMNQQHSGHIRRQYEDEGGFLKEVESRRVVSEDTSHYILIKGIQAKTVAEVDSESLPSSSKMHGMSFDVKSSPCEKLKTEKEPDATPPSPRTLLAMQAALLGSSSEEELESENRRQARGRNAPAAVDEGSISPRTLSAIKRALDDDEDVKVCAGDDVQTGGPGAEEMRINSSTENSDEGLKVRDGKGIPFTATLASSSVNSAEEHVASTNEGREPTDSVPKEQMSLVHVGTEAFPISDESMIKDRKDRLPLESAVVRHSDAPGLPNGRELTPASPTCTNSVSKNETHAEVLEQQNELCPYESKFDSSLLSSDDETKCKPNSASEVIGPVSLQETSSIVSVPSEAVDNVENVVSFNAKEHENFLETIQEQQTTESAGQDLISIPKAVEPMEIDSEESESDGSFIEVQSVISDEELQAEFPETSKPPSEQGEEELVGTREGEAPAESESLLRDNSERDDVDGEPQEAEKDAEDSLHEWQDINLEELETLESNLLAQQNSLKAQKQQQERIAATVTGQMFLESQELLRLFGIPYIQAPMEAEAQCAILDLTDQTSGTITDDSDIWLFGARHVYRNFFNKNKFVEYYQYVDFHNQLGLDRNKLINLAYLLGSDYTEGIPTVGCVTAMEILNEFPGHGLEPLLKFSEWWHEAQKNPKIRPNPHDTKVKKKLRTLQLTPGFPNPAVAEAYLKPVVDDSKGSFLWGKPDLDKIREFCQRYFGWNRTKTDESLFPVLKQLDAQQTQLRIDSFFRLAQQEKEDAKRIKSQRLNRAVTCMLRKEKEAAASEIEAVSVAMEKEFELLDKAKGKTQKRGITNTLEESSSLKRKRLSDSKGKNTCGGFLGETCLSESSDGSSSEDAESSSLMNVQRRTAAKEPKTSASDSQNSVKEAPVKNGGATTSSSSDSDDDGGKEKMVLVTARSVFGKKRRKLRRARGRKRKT
UniProt Q9NPD3, whole entry, looked up: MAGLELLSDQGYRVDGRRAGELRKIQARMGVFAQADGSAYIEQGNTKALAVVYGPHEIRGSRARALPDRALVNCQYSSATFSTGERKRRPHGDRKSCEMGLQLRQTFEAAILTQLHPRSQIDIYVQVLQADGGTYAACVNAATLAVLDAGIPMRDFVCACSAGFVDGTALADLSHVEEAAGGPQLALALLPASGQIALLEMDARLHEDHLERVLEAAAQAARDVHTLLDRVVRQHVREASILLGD
UniProt Q9Y3B2, whole entry, looked up: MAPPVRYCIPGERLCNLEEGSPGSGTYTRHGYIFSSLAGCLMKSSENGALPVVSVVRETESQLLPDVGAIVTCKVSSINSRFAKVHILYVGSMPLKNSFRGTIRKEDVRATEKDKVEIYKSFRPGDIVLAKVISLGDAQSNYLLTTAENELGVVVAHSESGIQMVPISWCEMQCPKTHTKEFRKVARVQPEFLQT
UniProt Q6P587: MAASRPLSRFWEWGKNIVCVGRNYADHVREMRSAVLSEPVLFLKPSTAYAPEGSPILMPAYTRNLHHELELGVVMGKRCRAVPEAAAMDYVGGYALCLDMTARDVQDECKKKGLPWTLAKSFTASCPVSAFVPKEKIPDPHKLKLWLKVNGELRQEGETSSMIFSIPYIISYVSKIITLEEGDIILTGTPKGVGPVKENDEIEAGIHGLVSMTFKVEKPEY
UniProt Q5RKV6, whole entry, looked up: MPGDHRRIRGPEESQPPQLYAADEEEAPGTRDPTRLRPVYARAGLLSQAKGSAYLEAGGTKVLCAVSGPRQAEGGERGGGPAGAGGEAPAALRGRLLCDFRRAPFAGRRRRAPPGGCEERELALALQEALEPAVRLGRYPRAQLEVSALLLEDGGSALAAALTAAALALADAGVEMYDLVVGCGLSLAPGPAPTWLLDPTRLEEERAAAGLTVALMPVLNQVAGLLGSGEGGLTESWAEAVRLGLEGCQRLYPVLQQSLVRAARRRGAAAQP
UniProt Q9NQT5, whole entry, looked up: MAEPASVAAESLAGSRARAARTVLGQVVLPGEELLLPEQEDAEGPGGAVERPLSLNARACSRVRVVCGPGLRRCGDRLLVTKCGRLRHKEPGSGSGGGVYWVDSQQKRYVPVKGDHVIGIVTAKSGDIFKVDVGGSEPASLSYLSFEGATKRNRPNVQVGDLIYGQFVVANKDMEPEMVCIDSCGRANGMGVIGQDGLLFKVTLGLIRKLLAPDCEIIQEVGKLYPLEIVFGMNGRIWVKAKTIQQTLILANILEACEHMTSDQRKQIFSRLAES
UniProt Q15024, whole entry, looked up: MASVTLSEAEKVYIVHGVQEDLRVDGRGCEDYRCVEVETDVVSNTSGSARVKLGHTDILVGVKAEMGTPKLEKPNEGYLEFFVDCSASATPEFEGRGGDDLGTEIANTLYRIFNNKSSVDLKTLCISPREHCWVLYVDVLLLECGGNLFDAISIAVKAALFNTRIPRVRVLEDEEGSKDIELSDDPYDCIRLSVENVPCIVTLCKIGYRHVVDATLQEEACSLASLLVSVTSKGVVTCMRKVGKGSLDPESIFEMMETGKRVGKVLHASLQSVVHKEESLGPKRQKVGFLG
UniProt Q9NQT4, whole entry, looked up: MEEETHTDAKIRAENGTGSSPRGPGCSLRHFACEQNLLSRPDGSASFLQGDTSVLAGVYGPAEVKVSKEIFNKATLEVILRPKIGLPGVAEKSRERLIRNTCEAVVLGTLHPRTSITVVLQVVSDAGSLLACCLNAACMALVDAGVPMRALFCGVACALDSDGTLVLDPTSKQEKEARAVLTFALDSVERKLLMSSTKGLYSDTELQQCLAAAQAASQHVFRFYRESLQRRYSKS
UniProt Q16134: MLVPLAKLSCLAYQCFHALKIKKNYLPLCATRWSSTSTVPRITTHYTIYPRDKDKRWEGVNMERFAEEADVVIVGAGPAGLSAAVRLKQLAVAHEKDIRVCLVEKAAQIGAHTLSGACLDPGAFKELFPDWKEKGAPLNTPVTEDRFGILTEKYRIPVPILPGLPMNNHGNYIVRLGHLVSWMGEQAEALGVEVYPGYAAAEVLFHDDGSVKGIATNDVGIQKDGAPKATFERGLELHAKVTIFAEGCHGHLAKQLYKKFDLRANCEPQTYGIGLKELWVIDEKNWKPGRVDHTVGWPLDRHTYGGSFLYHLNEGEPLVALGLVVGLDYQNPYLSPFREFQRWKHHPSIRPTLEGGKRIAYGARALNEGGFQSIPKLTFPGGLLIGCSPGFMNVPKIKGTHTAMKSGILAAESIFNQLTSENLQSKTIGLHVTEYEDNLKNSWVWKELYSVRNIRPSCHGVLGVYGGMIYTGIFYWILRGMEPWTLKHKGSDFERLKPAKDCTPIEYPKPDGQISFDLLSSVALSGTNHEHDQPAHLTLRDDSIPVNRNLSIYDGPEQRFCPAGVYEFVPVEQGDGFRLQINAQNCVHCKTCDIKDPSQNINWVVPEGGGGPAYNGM
UniProt Q9BS26: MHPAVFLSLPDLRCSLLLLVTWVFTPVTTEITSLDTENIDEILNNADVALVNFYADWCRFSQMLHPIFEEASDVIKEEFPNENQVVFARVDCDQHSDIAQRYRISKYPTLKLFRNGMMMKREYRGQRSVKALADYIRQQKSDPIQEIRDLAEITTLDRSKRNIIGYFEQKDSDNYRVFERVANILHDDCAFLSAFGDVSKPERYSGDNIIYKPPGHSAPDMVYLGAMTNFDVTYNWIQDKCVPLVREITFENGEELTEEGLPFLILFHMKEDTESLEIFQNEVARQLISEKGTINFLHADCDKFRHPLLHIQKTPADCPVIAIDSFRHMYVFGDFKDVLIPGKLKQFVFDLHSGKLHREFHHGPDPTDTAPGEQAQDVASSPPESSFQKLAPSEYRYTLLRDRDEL

Key:
Assay in all cases: log2 fold change, soluble protein after heating vs DMSO (PISA); higher = thermal stabilisation; K562 cells, 10 uM, 30 min; active = over 0.2 and 3.5 SD of the protein, either way, in both replicates (recomputed)
[1] = compound: C#Cc1cccc(Nc2ncnc3cc(OCCOC)c(OCCOC)cc23)c1 [erlotinib]
Outline: (§1)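 K562 cells (2×10^6 cells/mL) were treated with 10 μM compound for 30 min, and aliquots were heated for 3 min over 48°C-58°C. Pooled aliquots were extracted in PBS with 0.5% NP-40 at 4°C, and the supernatant after 21,000xg for 90 min was measured by TMTpro 16plex LC-MS/MS with channel sums equalised. Reported thermal stability, relative to control samples and from duplicates, is a log2 fold change.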

[2] = compound: C/C(=N\NC(=O)C1=CC(=CC=C1)S(=O)(=O)N2CCOCC2)/C3=C(C=CC(=C3)Cl)O
Outline: as §1

[3] = compound: C1=CC(=C(C=C1Cl)C2=NC3=NC=CN=C3C(=N2)NC4=CC=NC=C4)F
Outline: as §1

[4] = compound: C1=CC(=CC=C1C2=NC3=C(N2)C=C(C=C3)C(=O)N)OC4=CC=C(C=C4)Cl
Outline: as §1

[5] = compound: C1=CC2=C(C=CC(=C2)/C=C\3/C(=O)NC(=NCC4=CC=CS4)S3)N=C1
Outline: as §1

[6] = compound: C1=CC2=NC=CN=C2C=C1/C=C/3\C(=O)NC(=O)S3
Outline: as §1

[7] = compound: C1=CC=C(C=C1)C2=NC(=C(N2)C3=CC=NC=C3)C4=CC(=C(C=C4)Cl)O
Outline: as §1

[8] = compound: C1=CC=C2C(=C1)C3=NNC4=CC=CC(=C43)C2=O
Outline: as §1

[9] = compound: C1CCN(C1)C(=O)NC2=CC=CC(=C2)NC3=NC=C(C(=N3)NCCC4=CN=CN4)Br
Outline: as §1

[10] = compound: C1CN(CCC1(CC2=CC=C(C=C2)Cl)N)C3=NC=NC4=C3C=CN4
Outline: as §1

[11] = compound: C1COCCN1CCN2C3=CC=CC=C3N=C2NC(=O)C4=CC(=CC=C4)[N+](=O)[O-] [IRAK-1-4 Inhibitor I]
Outline: as §1

[12] = compound: C=CC(=O)N1CCC[C@@H](n2nc(-c3ccc(Oc4ccccc4)cc3)c3c(N)ncnc32)C1 [ibrutinib]
Outline: as §1

[13] = compound: CC(=O)c1cnc2ccc(-c3cc(Cl)c(O)c(Cl)c3)nc2c1N[C@H]1CC[C@H](CN(C)C)CC1
Outline: as §1

[14] = compound: CC(C)(C)Cn1c(N)nc2ccc(-c3[nH]c(C(C)(C)C)nc3-c3ccc(F)cc3)nc21 [ralimetinib]
Outline: as §1

[15] = compound: CC(C)(O)CC(=O)NCCn1ccc2ncnc(Nc3ccc(Oc4cccc(C(F)(F)F)c4)c(Cl)c3)c21
Outline: as §1

[16] = compound: CC(C)C1=C2N=C(C=C(N2N=C1)NCC3=CC=CC=C3)NCCCCCCN
Outline: as §1

[17] = compound: CC(C)C[C@@H](C=O)NC(=O)[C@H](CC(C)C)NC(=O)[C@H](CC(C)C)NC(=O)OCc1ccccc1
Outline: as §1

[18] = compound: CC(C)N(C[C@H]1O[C@@H](n2cnc3c(N)ncnc32)[C@H](O)[C@@H]1O)[C@H]1C[C@@H](CCc2nc3cc(C(C)(C)C)ccc3[nH]2)C1 [pinometostat]
Outline: as §1

[19] = compound: CC1=C(C(CC(=O)N1)C2=CC=C(C=C2)C(F)(F)F)C(=O)NC3=C(C=C4C(=C3)C=NN4)F
Outline: as §1

[20] = compound: CC1=C(C2=C(C=C1)C(=O)C3=CC=CC=C3N2CCCN)C
Outline: as §1

Measured: log2 fold change

ETFA (UniProt P13804)
inactive: [1] 0.029 | [2] 0 | [3] 0.076 | [4] 0.004 | [5] 0.031 | [6] 0.005 | [7] 0.035 | [8] 0.015 | [9] 0.015 | [10] 0.034 | [11] 0.04 | [12] -0.001 | [13] -0.028 | [14] -0.046 | [15] -0.003 | [16] 0.016 | [17] -0.027 | [18] -0.027 | [19] -0.024 | [20] 0.002

ERGIC3 isoform 3 (UniProt Q9Y282)
inactive: [1] 0.009 | [2] 0.072 | [3] 0.049 | [4] 0.011 | [5] -0.057 | [6] 0.015 | [7] 0.012 | [8] -0.042 | [9] -0.001 | [10] 0.071 | [11] 0.018 | [12] 0.024 | [13] 0.016 | [14] -0.084 | [15] -0.091 | [16] -0.14 | [17] 0.019 | [18] -0.027 | [19] 0.029 | [20] -0.006

F11R (UniProt Q9Y624)
inactive: [1] -0.01 | [2] -0.013 | [3] 0.07 | [4] 0 | [5] 0.029 | [6] 0.012 | [7] -0.017 | [8] -0.09 | [9] -0.021 | [10] 0.054 | [11] 0.048 | [12] 0.014 | [13] -0.036 | [14] -0.025 | [15] -0.035 | [16] 0.124 | [17] 0.013 | [18] -0.053 | [19] -0.029 | [20] -0.03

ERVK3-1, A0A0U1RQV1
inactive: [1] -0.011 | [2] -0.207 | [3] 0.344 | [4] 0.023 | [5] -0.057 | [6] 0.18 | [7] 0.092 | [8] -0.049 | [9] 0 | [10] -0.012 | [11] 0.02 | [12] -0.014 | [13] -0.114 | [14] -0.094 | [15] -0.02 | [16] 0.043 | [17] -0.025 | [18] 0.031 | [19] 0.048 | [20] 0.145

Copied from the entries so far (2 entries):
F11R (UniProt Q9Y624)
inactive: [1] -0.01 | [2] -0.013 | [3] 0.07 | [4] 0 | [5] 0.029 | [6] 0.012 | [7] -0.017 | [8] -0.09 | [9] -0.021 | [10] 0.054 | [11] 0.048 | [12] 0.014 | [13] -0.036 | [14] -0.025 | [15] -0.035 | [16] 0.124 | [17] 0.013 | [18] -0.053 | [19] -0.029 | [20] -0.03

ERVK3-1, A0A0U1RQV1
inactive: [1] -0.011 | [2] -0.207 | [3] 0.344 | [4] 0.023 | [5] -0.057 | [6] 0.18 | [7] 0.092 | [8] -0.049 | [9] 0 | [10] -0.012 | [11] 0.02 | [12] -0.014 | [13] -0.114 | [14] -0.094 | [15] -0.02 | [16] 0.043 | [17] -0.025 | [18] 0.031 | [19] 0.048 | [20] 0.145

(further entries)

EXT2 isoform 3 (UniProt Q93063)
inactive: [1] -0.018 | [2] 0.049 | [3] -0.1 | [4] 0.035 | [5] -0.021 | [6] 0 | [7] -0.039 | [8] -0.024 | [9] -0.001 | [10] -0.013 | [11] -0.044 | [12] -0.028 | [13] -0.008 | [14] 0.009 | [15] 0.026 | [16] -0.088 | [17] 0.085 | [18] 0.088 | [19] 0.042 | [20] -0.016

ERCC5 (UniProt P28715)
inactive: [1] -0.03 | [2] -0.003 | [3] -0.254 | [4] 0.098 | [5] -0.076 | [6] -0.109 | [7] -0.024 | [8] -0.013 | [9] 0.076 | [10] 0 | [11] 0.134 | [12] 0.11 | [13] 0.022 | [14] 0.005 | [15] 0.096 | [16] -0.08 | [17] -0.025 | [18] 0.082 | [19] 0.018 | [20] -0.284

EXOSC4 (UniProt Q9NPD3)
inactive: [1] 0.016 | [2] 0.017 | [3] 0.036 | [4] 0.003 | [5] 0.031 | [6] 0.016 | [7] 0.069 | [8] -0.026 | [9] -0.075 | [10] 0.032 | [11] 0.006 | [12] 0.016 | [13] -0.01 | [14] 0.083 | [15] -0.002 | [16] 0.105 | [17] -0.12 | [18] 0.025 | [19] 0.033 | [20] 0.041

EXOSC1 (UniProt Q9Y3B2)
inactive: [1] -0.011 | [2] -0.005 | [3] -0.155 | [4] -0.019 | [5] 0.02 | [6] -0.023 | [7] -0.049 | [8] -0.001 | [9] 0.001 | [10] -0.021 | [11] -0.025 | [12] -0.056 | [13] -0.064 | [14] 0.05 | [15] 0.045 | [16] 0.024 | [17] 0.1 | [18] 0.098 | [19] -0.081 | [20] 0.093

FAHD1 (UniProt Q6P587)
inactive: [1] 0.009 | [2] -0.016 | [3] 0.064 | [4] 0.014 | [5] -0.012 | [6] 0.041 | [7] -0.02 | [8] 0.044 | [9] -0.033 | [10] 0.011 | [11] 0.049 | [12] 0.075 | [13] -0.008 | [14] -0.023 | [15] 0.033 | [16] -0.037 | [17] -0.017 | [18] 0.005 | [19] 0.036 | [20] 0.005

EPB41L3 (UniProt Q9Y2J2)
inactive: [1] -0.034 | [2] 0.071 | [3] 0.011 | [4] 0.081 | [5] -0.025 | [6] 0.014 | [7] -0.014 | [8] -0.087 | [9] -0.02 | [10] 0 | [11] 0.032 | [12] 0.008 | [13] -0.151 | [14] -0.047 | [15] -0.039 | [16] 0.02 | [17] -0.004 | [18] -0.033 | [19] -0.004 | [20] 0.006

EXOSC6 (UniProt Q5RKV6)
inactive: [1] 0.025 | [2] 0.023 | [3] 0.017 | [4] 0.008 | [5] -0.055 | [6] 0.036 | [7] -0.021 | [8] -0.006 | [9] -0.057 | [10] 0.033 | [11] 0.051 | [12] 0.032 | [13] 0.01 | [14] 0.014 | [15] 0.035 | [16] 0.095 | [17] -0.07 | [18] -0.014 | [19] 0.007 | [20] 0.059

EXOSC3 (UniProt Q9NQT5)
inactive: [1] 0.012 | [2] 0.033 | [3] -0.028 | [4] 0.013 | [5] -0.007 | [6] 0.009 | [7] -0.03 | [8] -0.047 | [9] 0.008 | [10] 0.022 | [11] -0.023 | [12] 0 | [13] 0.001 | [14] 0.01 | [15] 0.007 | [16] -0.014 | [17] 0.004 | [18] 0.078 | [19] 0.017 | [20] 0.124

EXOSC7 (UniProt Q15024)
inactive: [1] 0.025 | [2] -0.038 | [3] -0.012 | [4] -0.006 | [5] 0.001 | [6] 0.034 | [7] -0.043 | [8] -0.029 | [9] 0.019 | [10] 0.043 | [11] 0.028 | [12] 0.021 | [13] 0.002 | [14] -0.008 | [15] 0.055 | [16] 0.09 | [17] 0.016 | [18] -0.02 | [19] 0.025 | [20] 0.01

EXOSC5 (UniProt Q9NQT4)
inactive: [1] -0.024 | [2] -0.039 | [3] -0.05 | [4] 0.011 | [5] 0 | [6] 0.002 | [7] 0.019 | [8] 0.011 | [9] -0.033 | [10] -0.045 | [11] -0.002 | [12] 0.013 | [13] 0.016 | [14] -0.02 | [15] 0.007 | [16] 0.054 | [17] -0.017 | [18] -0.009 | [19] -0.002 | [20] 0.042

ETFDH (UniProt Q16134)
inactive: [1] 0.043 | [2] 0.02 | [3] 0.027 | [4] 0.007 | [5] 0.091 | [6] 0.005 | [7] 0.001 | [8] -0.011 | [9] 0.017 | [10] 0.025 | [11] 0.033 | [12] -0.016 | [13] -0.009 | [14] -0.02 | [15] -0.1 | [16] -0.059 | [17] -0.031 | [18] -0.018 | [19] 0.002 | [20] 0.014

ERP44 (UniProt Q9BS26)
inactive: [1] -0.046 | [2] -0.032 | [3] 0.022 | [4] 0.001 | [5] -0.011 | [6] 0.01 | [7] -0.012 | [8] 0.007 | [9] 0.024 | [10] -0.005 | [11] 0.025 | [12] -0.007 | [13] 0 | [14] 0 | [15] -0.002 | [16] -0.005 | [17] 0.018 | [18] -0.01 | [19] -0.009 | [20] -0.023
